Holding throughout (assay): co-IP
For assay [1], the target named is T1, 3xflag-SPCS3 (human (cDNA from THP-1 cells)) (UniProt P61009).
T1 sequence: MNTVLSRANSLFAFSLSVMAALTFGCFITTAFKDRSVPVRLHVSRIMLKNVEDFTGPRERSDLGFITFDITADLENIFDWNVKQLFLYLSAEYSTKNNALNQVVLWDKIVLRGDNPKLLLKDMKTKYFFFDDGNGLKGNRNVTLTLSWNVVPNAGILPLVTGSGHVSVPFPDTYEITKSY

The target in assay [2] is myc-E2 (chikungunya virus, vaccine strain 181/clone 25).
The target in assay [3] is CHIKV E1-3xflag (chikungunya virus, vaccine strain 181/clone 25).

No constants are given. Whether binding was seen depends on the method and setting. Binding seen in cells or lysates may run through a third protein. For some assays here: Binding calls can cover weak binding; strength is not graded here. Tags and fused reporters may be left off the sequences shown.

Turning to CHIKV E1 glycoprotein, the binding entry in assay [1] was “binds”.

Consider “CHIKV poly-glycoprotein E3-myc-E2-6K-E1 (uncleaved)”, for which, in assay [1], the binding entry was “binds”.

Take myc-E2: the binding result in assay [1] is reported as “no binding”.

B1: 3xflag-SPCS3 (protein, UniProt P61009 1-180)
chain: MNTVLSRANSLFAFSLSVMAALTFGCFITTAFKDRSVPVRLHVSRIMLKNVEDFTGPRERSDLGFITFDITADLENIFDWNVKQLFLYLSAEYSTKNNALNQVVLWDKIVLRGDNPKLLLKDMKTKYFFFDDGNGLKGNRNVTLTLSWNVVPNAGILPLVTGSGHVSVPFPDTYEITKSY
Turning to B1, the figures for the binding result in assay [2] and in assay [3] were “no binding” and “binds”, respectively.
